Assay results as given in publication PMC10703869.
No constants are given. Whether binding was seen depends on the method and setting. Binding seen in cells or lysates may run through a third protein. Some results given as binding are weak or reduced against the parent protein; the word gives no strength.

T1: HSPA13 (human (endogenous in Huh-7 and SK-Hep-1)) (UniProt P48723)
T1 sequence: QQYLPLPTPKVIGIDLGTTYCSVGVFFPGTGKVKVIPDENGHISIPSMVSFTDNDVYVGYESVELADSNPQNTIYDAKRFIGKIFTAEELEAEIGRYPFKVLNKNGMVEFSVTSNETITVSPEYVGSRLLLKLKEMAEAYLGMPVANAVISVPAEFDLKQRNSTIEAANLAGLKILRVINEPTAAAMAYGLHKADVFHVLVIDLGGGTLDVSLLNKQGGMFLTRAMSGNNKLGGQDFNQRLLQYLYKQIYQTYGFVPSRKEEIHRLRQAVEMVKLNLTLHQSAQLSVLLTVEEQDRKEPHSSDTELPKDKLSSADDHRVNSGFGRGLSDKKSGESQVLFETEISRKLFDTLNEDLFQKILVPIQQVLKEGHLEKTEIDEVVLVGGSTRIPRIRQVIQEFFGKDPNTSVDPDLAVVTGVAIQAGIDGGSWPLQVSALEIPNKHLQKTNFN

T2: HSPA13 (human (endogenous in Huh-7 and SK-Hep-1)), P48723
T2 chain: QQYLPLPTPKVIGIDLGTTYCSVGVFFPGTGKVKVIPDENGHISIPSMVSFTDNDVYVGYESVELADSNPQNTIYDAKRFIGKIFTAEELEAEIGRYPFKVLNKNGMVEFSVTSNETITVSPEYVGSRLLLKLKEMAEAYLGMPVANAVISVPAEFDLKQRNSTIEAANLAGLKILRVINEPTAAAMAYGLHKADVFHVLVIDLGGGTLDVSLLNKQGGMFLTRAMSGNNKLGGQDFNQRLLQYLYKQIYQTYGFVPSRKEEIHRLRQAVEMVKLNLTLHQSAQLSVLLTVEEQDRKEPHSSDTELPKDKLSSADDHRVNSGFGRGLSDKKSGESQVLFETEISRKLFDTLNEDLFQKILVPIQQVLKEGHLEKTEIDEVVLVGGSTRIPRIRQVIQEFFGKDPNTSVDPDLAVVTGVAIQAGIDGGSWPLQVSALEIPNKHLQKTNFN


Tests used:
[1] = target: T1, HSPA13 (human (endogenous in Huh-7 and SK-Hep-1)); test: co-IP; endogenous HSPA13 and TANK in Huh-7 and SK-Hep-1 cell lysates; anti-HSPA13 or anti-TANK antibody or control IgG with Dynabeads Protein G, overnight at 4 °C; western blot
[2] = target: T2, HSPA13 (human (endogenous in Huh-7 and …)); test: co-IP; HYOU1 and FBX6 tested against HSPA13 (Supplementary Fig. 2B and C); cells and antibodies for these partners not given; cell lysates, Dynabeads Protein G, overnight at 4 °C; western blot; conditions: remark: other sources report otherwise

Binder | binding [1] | binding [2]
TANK (TRAF family member-associated NF-kappa-B activator) (protein, UniProt Q92844 1-425) MDKNIGEQLNKAYEAFRQACMDRDSAVKELQQKTENYEQRIREQQEQLSLQQTIIDKLKSQLLLVNSTQDNNYGCVPLLEDSETRKNNLTLDQPQDKVISGIAREKLPKVRRQEVSSPRKETSARSLGSPLLHERGNIEKTFWDLKEEFHKICMLAKAQKDHLSKLNIPDTATETQCSVPIQCTDKTDKQEALFKPQAKDDINRGAPSITSVTPRGLCRDEEDTSFESLSKFNVKFPPMDNDSTFLHSTPERPGILSPATSEAVCQEKFNMEFRDNPGNFVKTEETLFEIQGIDPIASAIQNLKTTDKTKPSNLVNTCIRTTLDRAACLPPGDHNALYVNSFPLLDPSDAPFPSLDSPGKAIRGPQQPIWKPFPNQDSDSVVLSGTDSELHIPRVCEFCQAVFPPSITSRGDFLRHLNSHFNGET | binds | 
HYOU1, Q9Y4L1 33-999 (protein) LAVMSVDLGSESMKVAIVKPGVPMEIVLNKESRRKTPVIVTLKENERFFGDSAASMAIKNPKATLRYFQHLLGKQADNPHVALYQARFPEHELTFDPQRQTVHFQISSQLQFSPEEVLGMVLNYSRSLAEDFAEQPIKDAVITVPVFFNQAERRAVLQAARMAGLKVLQLINDNTATALSYGVFRRKDINTTAQNIMFYDMGSGSTVCTIVTYQMVKTKEAGMQPQLQIRGVGFDRTLGGLEMELRLRERLAGLFNEQRKGQRAKDVRENPRAMAKLLREANRLKTVLSANADHMAQIEGLMDDVDFKAKVTRVEFEELCADLFERVPGPVQQALQSAEMSLDEIEQVILVGGATRVPRVQEVLLKAVGKEELGKNINADEAAAMGAVYQAAALSKAFKVKPFVVRDAVVYPILVEFTREVEEEPGIHSLKHNKRVLFSRMGPYPQRKVITFNRYSHDFNFHINYGDLGFLGPEDLRVFGSQNLTTVKLKGVGDSFKKYPDYESKGIKAHFNLDESGVLSLDRVESVFETLVEDSAEEESTLTKLGNTISSLFGGGTTPDAKENGTDTVQEEEESPAEGSKDEPGEQVELKEEAEAPVEDGSQPPPPEPKGDATPEGEKATEKENGDKSEAQKPSEKAEAGPEGVAPAPEGEKKQKPARKRRMVEEIGVELVVLDLPDLPEDKLAQSVQKLQDLTLRDLEKQEREKAANSLEAFIFETQDKLYQPEYQEVSTEEQREEISGKLSAASTWLEDEGVGATTVMLKEKLAELRKLCQGLFFRVEERKKWPERLSALDNLLNHSSMFLKGARLIPEMDQIFTEVEMTTLEKVINETWAWKNATLAEQAKLPATEKPVLLSKDIEAKMMALDREVQYLLNKAKFTKPRPRPKDKNGTRAEPPLNASASDQGEKVIPPAGQTEDAEPISEPEKVETGSEPGDTEPLELGGPGAEPEQKEQSTGQKRPLKNDEL |  | no binding
